Source: patent US4545991A, “Difficidin and derivative antibacterials” (Merck & Co., Inc., priority 1983, dated 1985)

Test system: calf intestinal mucosa alkaline phosphatase
Assay: alkaline phosphatase dephosphonylation of oxydifficidin
Type: biochemical

C=CC=C(C)CCC1CC=CC=C(C)C(OP(=O)(O)O)CCCC=CC=CC=CC(O)C(C)C(=C)CC(=O)O1 (centres unmarked) [Oxydifficidin, oxydifficidin]
inactivation by alkaline phosphatase: ready inactivation | transformation by alkaline phosphatase (60 min. incubation at 28° C., TRIS pH 8.0): the majority of oxydifficidin (Rf 0.59) had been transformed into a new substance
